Publication PMC11212092
No constants are given. Whether binding was seen depends on the method and setting. For some assays here: Binding seen in cells or lysates may run through a third protein. Some results given as binding are weak or reduced against the parent protein; the word gives no strength.

Protein sequences, listed by entry. Tags and fused reporters are not part of them.
UniProt Q15365: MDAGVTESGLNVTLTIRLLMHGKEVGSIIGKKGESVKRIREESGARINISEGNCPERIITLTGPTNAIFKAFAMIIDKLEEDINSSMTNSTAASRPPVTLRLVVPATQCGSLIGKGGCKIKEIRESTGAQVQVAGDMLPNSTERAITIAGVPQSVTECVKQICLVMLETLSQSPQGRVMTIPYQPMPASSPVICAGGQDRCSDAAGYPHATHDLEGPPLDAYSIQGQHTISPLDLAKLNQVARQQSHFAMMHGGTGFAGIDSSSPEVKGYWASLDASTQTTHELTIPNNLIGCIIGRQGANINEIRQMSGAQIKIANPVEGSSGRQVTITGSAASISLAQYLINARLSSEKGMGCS

Experiments:
SIVA-1 (human) [1] = target: T1, SIVA-1 (human) (UniProt O15304); assay: co-IP; Co-IP; unpublished data, no details given
T1 sequence: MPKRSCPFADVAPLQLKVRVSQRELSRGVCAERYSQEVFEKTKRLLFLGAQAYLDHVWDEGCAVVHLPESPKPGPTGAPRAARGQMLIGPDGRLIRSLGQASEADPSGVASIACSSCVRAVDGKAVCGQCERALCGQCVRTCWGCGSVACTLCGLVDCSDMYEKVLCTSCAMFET

SIVA-1 (human) [2] = target: T1, SIVA-1 (human); assay: two-hybrid; yeast two-hybrid; unpublished data, no details given

binding (SIVA-1 (human) [1]): binds | binding (SIVA-1 (human) [2]): binds
Substance: PCBP1 (from UniProt Q15365 1-356)
